Assay [1] has as its target BCL7B-HA (Arabidopsis thaliana). Briefly: co-IP; N. benthamiana leaves co-expressing BRM-N-GFP and BCL7A/B-HA; lysate on anti-HA agarose beads, 4 °C 3 h; immunoblot.
In assay [2] the target is BCL7A-HA (Arabidopsis thaliana). Described as above.

The values that follow come from PMC10830565 (2024).

Results are given in words; binding and its absence hold for the method and conditions named. In cells and extracts the contact can be indirect. Binding calls can cover weak binding; strength is not graded here. Where a sequence is shown, tags or fusion partners need not be part of it.

B1: BRM-N-GFP (domain or fragment, UniProt Q6EVK6 1-952)
chain: MQSGGSGGGPARNPAMGPAGRTASTSSAASPSSSSSSVQQQQQQQQQQQQQQQLASRQQQQQHRNSDTNENMFAYQPGGVQGMMGGGNFASSPGSMQMPQQSRNFFESPQQQQQQQQQGSSTQEGQQNFNPMQQAYIQFAMQAQHQKAQQQARMGMVGSSSVGKDQDARMGMLNMQDLNPSSQPQASSSKPSGDQFARGERQTESSSQQRNETKSHPQQQVGTGQLMPGNMIRPMQAPQAQQLVNNMGNNQLAFAQQWQAMQAWARERNIDLSHPANASQMAHILQARMAAQQKAGEGNVASQSPSIPISSQPASSSVVPGENSPHANSASDISGQSGSAKARHALSTGSFASTSSPRMVNPAMNPFSGQGRENPMYPRHLVQPTNGMPSGNPLQTSANETPVLDQNASTKKSLGPAEHLQMQQPRQLNTPTPNLVAPSDTGPLSNSSLQSGQGTQQAQQRSGFTKQQLHVLKAQILAFRRLKKGEGSLPPELLQAISPPPLELQTQRQISPAIGKVQDRSSDKTGEDQARSLECGKESQAAASSNGPIFSKEEDNVGDTEVALTTGHSQLFQNLGKEATSTDVATKEEQQTDVFPVKSDQGADSSTQKNPRSDSTADKGKAVASDGSQSKVPPQANSPQPPKDTASARKYYGPLFDFPFFTRKLDSYGSATANANNNLTLAYDIKDLICEEGAEFLSKKRTDSLKKINGLLAKNLERKRIRPDLVLRLQIEEKKLRLSDLQSRVREEVDRQQQEIMSMPDRPYRKFVRLCERQRLEMNRQVLANQKAVREKQLKTIFQWRKKLLEAHWAIRDARTARNRGVAKYHEKMLREFSKRKDDGRNKRMEALKNNDVERYREMLLEQQTNMPGDAAERYAVLSSFLTQTEDYLHKLGGKITATKNQQEVEEAANAAAVAARLQGLSEEEVRAAATCAREEVVIRNRFTEMNAPKEN
Take B1: the binding result in assay [1] and in assay [2] was “binds” throughout.
